Results are given in words; binding and its absence hold for the method and conditions named. In cells and extracts the contact can be indirect. Some binding calls cover weakened binding; strength is not graded here.

Amino acid sequences for entries named in this document (tags omitted).
UniProt P29466: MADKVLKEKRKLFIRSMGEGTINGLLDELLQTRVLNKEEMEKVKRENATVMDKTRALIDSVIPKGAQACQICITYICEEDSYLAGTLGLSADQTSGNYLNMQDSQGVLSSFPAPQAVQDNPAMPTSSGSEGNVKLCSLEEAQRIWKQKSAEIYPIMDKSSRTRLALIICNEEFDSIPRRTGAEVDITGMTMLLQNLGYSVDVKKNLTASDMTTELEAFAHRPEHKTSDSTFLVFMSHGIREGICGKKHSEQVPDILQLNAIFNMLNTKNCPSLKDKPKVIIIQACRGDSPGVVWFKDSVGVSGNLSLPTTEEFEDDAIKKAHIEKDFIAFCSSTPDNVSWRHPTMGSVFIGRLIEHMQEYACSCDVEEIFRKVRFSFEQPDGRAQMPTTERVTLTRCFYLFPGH
UniProt Q9ULZ3: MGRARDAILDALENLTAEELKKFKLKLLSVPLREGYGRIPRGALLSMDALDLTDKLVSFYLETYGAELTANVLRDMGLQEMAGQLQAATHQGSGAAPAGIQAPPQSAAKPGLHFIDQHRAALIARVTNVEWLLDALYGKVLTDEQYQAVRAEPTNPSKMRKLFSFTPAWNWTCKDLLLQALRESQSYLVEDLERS

The experiment has as its target pro-caspase-1 (human) (UniProt P29466). Briefly: GST-POP1 pull-down from THP-1 lysates; pro-caspase-1 co-purified through ASC (FIG. 18a).

As for ASC (from UniProt Q9ULZ3 1-195), the binding entry is given as “binds”.
